According to patent publication EP2703005A1, “Inhibitors of alpha6 Integrin/E-Cadherin Complex” (Università Degli Studi Di Torino, priority 2012, dated 2014):
These are yes or no findings as the source states them, for the method shown. Binding seen in cells or lysates may run through a third protein. Some binding calls cover weakened binding; strength is not graded here. Sequences can lack the tags named with a protein.

The chains behind the UniProt entries cited, without tags or fusion partners. Residues count along the entry.
UniProt P63092, residues 2-394: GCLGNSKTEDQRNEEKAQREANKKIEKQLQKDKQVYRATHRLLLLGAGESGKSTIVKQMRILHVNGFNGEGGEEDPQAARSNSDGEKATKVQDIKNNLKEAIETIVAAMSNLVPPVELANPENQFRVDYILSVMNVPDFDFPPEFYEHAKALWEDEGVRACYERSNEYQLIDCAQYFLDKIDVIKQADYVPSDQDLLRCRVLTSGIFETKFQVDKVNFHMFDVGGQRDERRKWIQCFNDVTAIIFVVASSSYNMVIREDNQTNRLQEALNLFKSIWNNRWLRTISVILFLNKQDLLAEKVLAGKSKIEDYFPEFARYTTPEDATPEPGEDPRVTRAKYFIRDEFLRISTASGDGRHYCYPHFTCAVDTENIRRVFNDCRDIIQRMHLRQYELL
UniProt P35611: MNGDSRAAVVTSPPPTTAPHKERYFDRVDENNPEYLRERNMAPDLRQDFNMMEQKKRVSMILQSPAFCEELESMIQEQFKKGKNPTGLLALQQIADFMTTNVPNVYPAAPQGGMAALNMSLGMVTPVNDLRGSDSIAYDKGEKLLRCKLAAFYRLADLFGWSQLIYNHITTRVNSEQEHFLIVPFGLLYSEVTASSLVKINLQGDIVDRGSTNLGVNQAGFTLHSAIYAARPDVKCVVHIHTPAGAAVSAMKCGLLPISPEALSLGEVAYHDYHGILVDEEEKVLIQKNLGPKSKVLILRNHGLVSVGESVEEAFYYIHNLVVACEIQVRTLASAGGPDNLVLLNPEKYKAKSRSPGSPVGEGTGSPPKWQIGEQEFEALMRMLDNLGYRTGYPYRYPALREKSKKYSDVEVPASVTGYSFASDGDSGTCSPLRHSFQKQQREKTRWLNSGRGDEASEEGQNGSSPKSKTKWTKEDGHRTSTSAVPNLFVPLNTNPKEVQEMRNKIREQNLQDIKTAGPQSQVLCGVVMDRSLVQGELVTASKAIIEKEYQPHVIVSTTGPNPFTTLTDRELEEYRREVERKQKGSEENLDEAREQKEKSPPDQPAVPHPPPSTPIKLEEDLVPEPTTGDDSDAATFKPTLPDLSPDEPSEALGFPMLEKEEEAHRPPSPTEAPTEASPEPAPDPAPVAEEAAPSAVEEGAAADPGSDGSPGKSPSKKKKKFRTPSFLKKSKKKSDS
UniProt P25705, residues 44-553: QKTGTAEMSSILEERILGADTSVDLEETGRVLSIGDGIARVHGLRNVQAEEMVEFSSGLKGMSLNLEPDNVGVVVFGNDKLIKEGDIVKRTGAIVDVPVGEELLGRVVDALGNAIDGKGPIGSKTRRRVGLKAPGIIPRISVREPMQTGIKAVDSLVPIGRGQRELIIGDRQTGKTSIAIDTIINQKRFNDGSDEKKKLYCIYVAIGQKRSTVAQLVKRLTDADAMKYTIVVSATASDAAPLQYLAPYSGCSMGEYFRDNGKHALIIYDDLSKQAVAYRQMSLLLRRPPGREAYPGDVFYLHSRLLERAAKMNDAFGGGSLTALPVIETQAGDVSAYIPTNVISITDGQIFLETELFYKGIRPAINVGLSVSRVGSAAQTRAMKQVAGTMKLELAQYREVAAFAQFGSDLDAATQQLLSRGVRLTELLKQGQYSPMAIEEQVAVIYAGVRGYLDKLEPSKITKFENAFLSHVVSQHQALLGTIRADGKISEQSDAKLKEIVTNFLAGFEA

Assays:
[1] = target: G nucleotide-binding protein (human) (UniProt P63092); test: GST pull-down from NCI-H630 lysate (HepG2 lysate as control), LC-MS/MS; MASCOT score 98
α-adducin (human) = α-adducin (human) (UniProt P35611); test: as above
[2] = target: T1, microsomal dipeptidase (human) (UniProt P16444); test: GST pull-down from NCI-H630 lysate (HepG2 lysate as control), LC-MS/MS; MASCOT score 117
T1 sequence (looked up): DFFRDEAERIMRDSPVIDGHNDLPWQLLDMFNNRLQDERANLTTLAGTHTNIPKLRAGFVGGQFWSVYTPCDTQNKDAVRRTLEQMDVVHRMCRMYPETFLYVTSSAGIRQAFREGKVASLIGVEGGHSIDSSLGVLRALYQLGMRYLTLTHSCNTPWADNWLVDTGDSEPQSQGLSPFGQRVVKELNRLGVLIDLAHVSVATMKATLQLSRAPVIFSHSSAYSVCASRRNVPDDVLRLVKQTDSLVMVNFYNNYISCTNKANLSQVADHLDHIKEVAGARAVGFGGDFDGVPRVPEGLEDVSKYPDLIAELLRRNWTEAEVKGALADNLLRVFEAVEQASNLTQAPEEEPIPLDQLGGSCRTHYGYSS

[3] = target: T2, stomatin-like protein 2 (human) (UniProt Q9UJZ1); test: GST pull-down from NCI-H630 lysate (HepG2 lysate as control), LC-MS/MS; MASCOT score 81
T2 sequence (looked up): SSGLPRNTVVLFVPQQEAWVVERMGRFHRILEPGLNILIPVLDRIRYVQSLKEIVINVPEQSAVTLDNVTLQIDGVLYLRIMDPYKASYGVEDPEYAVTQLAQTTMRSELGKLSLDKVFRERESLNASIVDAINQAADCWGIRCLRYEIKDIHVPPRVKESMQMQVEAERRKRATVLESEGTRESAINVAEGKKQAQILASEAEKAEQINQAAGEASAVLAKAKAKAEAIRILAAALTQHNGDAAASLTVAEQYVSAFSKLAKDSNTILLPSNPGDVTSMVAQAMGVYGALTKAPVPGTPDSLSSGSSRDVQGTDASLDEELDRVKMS

[4] = target: ATP synthase α chain (human) (UniProt P25705); test: GST pull-down from NCI-H630 lysate (HepG2 lysate as control), LC-MS/MS; MASCOT score 200
myosin Id (human) = target: T3, myosin Id (human) (UniProt O94832); test: GST pull-down from NCI-H630 lysate (HepG2 lysate as control), LC-MS/MS; MASCOT score 1804
T3 sequence (looked up): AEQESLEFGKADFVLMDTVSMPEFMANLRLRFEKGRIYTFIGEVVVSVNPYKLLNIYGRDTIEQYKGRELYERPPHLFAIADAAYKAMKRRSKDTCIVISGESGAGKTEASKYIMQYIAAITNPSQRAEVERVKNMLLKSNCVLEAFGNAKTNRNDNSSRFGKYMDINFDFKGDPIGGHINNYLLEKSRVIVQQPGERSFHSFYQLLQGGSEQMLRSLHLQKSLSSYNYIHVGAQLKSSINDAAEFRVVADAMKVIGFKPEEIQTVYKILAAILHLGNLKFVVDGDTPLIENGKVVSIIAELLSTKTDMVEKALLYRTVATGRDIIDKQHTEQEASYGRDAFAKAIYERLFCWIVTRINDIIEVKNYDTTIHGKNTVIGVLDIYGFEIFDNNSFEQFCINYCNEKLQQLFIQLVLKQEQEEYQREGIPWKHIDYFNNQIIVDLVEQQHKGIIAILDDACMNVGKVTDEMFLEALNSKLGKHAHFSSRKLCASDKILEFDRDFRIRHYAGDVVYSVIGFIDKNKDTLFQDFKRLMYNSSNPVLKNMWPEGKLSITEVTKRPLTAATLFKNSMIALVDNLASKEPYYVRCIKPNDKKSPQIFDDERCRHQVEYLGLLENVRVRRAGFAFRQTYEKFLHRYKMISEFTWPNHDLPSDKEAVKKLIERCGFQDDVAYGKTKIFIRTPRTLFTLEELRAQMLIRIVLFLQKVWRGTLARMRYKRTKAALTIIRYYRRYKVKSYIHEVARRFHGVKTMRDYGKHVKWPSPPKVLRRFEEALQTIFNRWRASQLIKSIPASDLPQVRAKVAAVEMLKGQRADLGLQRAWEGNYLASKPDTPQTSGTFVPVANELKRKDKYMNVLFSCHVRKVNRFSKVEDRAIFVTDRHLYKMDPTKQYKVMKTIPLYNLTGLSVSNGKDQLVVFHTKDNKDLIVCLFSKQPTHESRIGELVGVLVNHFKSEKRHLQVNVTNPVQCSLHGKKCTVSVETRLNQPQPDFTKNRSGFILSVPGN

Measured: binding

CGIYRLRSC (peptide, not shown: a dimerising Fc or GST) […-GST]
binds: all assays above
